The list does not hold the whole screen: it is rich in T/C values a quarter to a half above the control, in often repeated tests (any T/C) and in doses without a T/C. Other doses and runs of a compound stand elsewhere. T/C gives the treated animals as a percentage of the vehicle group. Some entries give survivors of the animals treated and no T/C: the source files T/C as zero there, which appears to mark a toxic dose or a test without result, not a measured value. Some doses without a T/C left all or most animals alive at the check, yet need not have been tolerated: the source hardly ever lists a survival T/C far under the control, and the zero likely stands for such cases as well. Counts of survivors are from the toxicity check (mostly the fifth day) where no day follows; animals may have died later. Schedules are NCI's codes, read here as Q, the interval in days (D) or hours (H), X, the number of doses. Some entries hold several experiments; the results are listed from low to high. Some schedule codes hold Z or #, which are not explained here. Where survival is the endpoint, the PubChem record calls one and a half times the control and up active, and a quarter to a half above the control has no call in these data; cut-offs in other NCI protocols can differ. Some T/C values carry the count of animals alive at the toxicity check (mostly the fifth day); where none is given, no animal had died by that day.
Test system: L1210 leukemia ip in BDF1 mice, survival T/C
Test: NCI In Vivo Anticancer Drug Screen. Data for tumor model L1210 Leukemia (intraperitoneal) in B6D2F1 (BDF1) mice
Conditions: T/C endpoint: mean survival time, higher T/C = longer survival
[1] = dose: 1.0 mg/kg/injection, schedule: Q01DX001 (ip), vehicle: saline
[2] = dose: 300.0 mg/kg/injection, schedule: Q01DX001 (ip), vehicle: saline
[3] = dose: 400.0 mg/kg/injection, schedule: Q04DX003 (ip), vehicle: Klucel (hydroxypropylcellulose) (HPC)
[4] = dose: 400.0 mg/kg/injection, schedule: Q01DX001 (ip), vehicle: saline
[5] = dose: 50.0 mg/kg/injection, schedule: Q01DX001 (ip), vehicle: carboxymethylcellulose (CMC)
[6] = dose: 200.0 mg/kg/injection, schedule: Q01DX001 (ip), vehicle: carboxymethylcellulose (CMC)
[7] = dose: 400.0 mg/kg/injection, schedule: Q01DX001 (ip), vehicle: carboxymethylcellulose (CMC)
[8] = dose: 100.0 mg/kg/injection, schedule: Q01DX Z (ip), vehicle: methylcellulose (MC)
[9] = dose: 200.0 mg/kg/injection, schedule: Q01DX Z (ip), vehicle: methylcellulose (MC)
[10] = dose: 400.0 mg/kg/injection, schedule: Q01DX009 (ip), vehicle: saline with Tween-80
[11] = dose: 100.0 mg/kg/injection, schedule: Q01DX001 (ip), vehicle: carboxymethylcellulose (CMC)
[12] = dose: 50.0 mg/kg/injection, schedule: Q01DX009 (ip), vehicle: saline with Tween-80
[13] = dose: 100.0 mg/kg/injection, schedule: Q01DX009 (ip), vehicle: saline with Tween-80

In the case of `CN(CCO)C1=C(N2CC2)C(=O)C(N(C)CCO)=C(N2CC2)C1=O`, the T/C (dose: 0.19 mg/kg/injection, schedule: Q04DX003 (ip), vehicle: saline) was 133 % of control, the T/C (dose: 0.25 mg/kg/injection, schedule: Q01DX009 (ip), vehicle: saline) was 125 % of control and the T/C (dose: 0.5 mg/kg/injection, schedule: Q01DX009 (ip), vehicle: saline) was 131 and 144 % of control. The T/C (dose: 0.75 mg/kg/injection, schedule: Q04DX003 (ip), vehicle: saline) was 139 % of control and the T/C [1] was 126 % of control.

With `CCOP(=O)(OCC)Oc1cc(C)c(N(C)C)c(C)c1` the survivor count [2] was 0 of 6.

For `NC(=O)C(=O)NCCCCN1CC1`, the survivor count (dose: 200.0 mg/kg/injection, schedule: Q04DX003 (ip), vehicle: Klucel (hydroxypropylcellulose) (HPC)) was 3 of 6 and the survivor count [3] was 0 of 6.

With `Cc1cc(C)cc(OCC2CNC(=O)O2)c1` (stereo not drawn) the survivor count (dose: 100.0 mg/kg/injection, schedule: Q04DX003 (ip), vehicle: saline) was 4 of 4.

In the case of `C[N+]1(CCCNC2=CC(=O)C=CC2=O)CCCC1`, the survivor count [1] was 0 of 6, the survivor count (dose: 2.0 mg/kg/injection, schedule: Q01DX001 (ip), vehicle: saline) was 0 of 6 and the survivor count (dose: 4.0 mg/kg/injection, schedule: Q01DX001 (ip), vehicle: saline) was 0 of 6. For the same molecule, the survivor count (dose: 5.0 mg/kg/injection, schedule: Q01DX001 (ip), vehicle: saline) was 0 of 6, the survivor count (dose: 8.0 mg/kg/injection, schedule: Q01DX001 (ip), vehicle: saline) was 0 of 6 and the survivor count (dose: 10.0 mg/kg/injection, schedule: Q01DX001 (ip), vehicle: saline) was 0 of 6. The survivor count (dose: 20.0 mg/kg/injection, schedule: Q01DX001 (ip), vehicle: saline) was 0 of 6, the survivor count (dose: 40.0 mg/kg/injection, schedule: Q01DX001 (ip), vehicle: saline) was 0 of 6 and the survivor count (dose: 80.0 mg/kg/injection, schedule: Q01DX001 (ip), vehicle: saline) was 0 of 6. For the same molecule, the survivor count (dose: 100.0 mg/kg/injection, schedule: Q01DX001 (ip), vehicle: saline) was 0 of 6, the survivor count (dose: 200.0 mg/kg/injection, schedule: Q01DX001 (ip), vehicle: saline) was 0 of 6 and the survivor count [4] was 0 of 6.

`CC(=O)Nc1cccc(N)c1` was tested, and the survivor count (dose: 400.0 mg/kg/injection, schedule: Q04DX002 (ip), vehicle: Klucel (hydroxypropylcellulose) (HPC)) was 1 of 3.

`O=NN(CCCl)C(=O)Nc1ccccc1Cl` was tested, and the T/C [5] was 142 % of control, the survivor count [6] was 4 of 6 and the survivor count (dose: 300.0 mg/kg/injection, schedule: Q01DX001 (ip), vehicle: carboxymethylcellulose (CMC)) was 2 of 6. The survivor count [7] was 0 of 6, the survivor count (dose: 500.0 mg/kg/injection, schedule: Q01DX001 (ip), vehicle: carboxymethylcellulose (CMC)) was 0 of 6 and the survivor count (dose: 600.0 mg/kg/injection, schedule: Q01DX001 (ip), vehicle: carboxymethylcellulose (CMC)) was 0 of 6. For the same molecule, the survivor count (dose: 800.0 mg/kg/injection, schedule: Q01DX001 (ip), vehicle: carboxymethylcellulose (CMC)) was 0 of 6 and the survivor count (dose: 1000.0 mg/kg/injection, schedule: Q01DX001 (ip), vehicle: carboxymethylcellulose (CMC)) was 0 of 6.

In the case of `Cc1ccc(Nc2cc(N)nc(N)n2)cc1C`, the survivor count [8] was 5 of 6 and the survivor count [9] was 3 of 6.

With `CCCCCCCCCCCCCCCCCCNC(=O)Nc1ccc(C(C)C)cc1` the survivor count [3] was 6 of 6.

In the case of `COc1ccc(CN(N=O)c2ccc(C(=O)O)cc2)cc1`, the survivor count [10] was 2 of 6.

In the case of `OCCOCCN1CCN(C(c2ccccc2)c2ccc(Cl)cc2)CC1` (stereo not drawn), the survivor count (dose: 200.0 mg/kg/injection, schedule: Q01DX009 (ip), vehicle: saline) was 0 of 6 and the survivor count (dose: 400.0 mg/kg/injection, schedule: Q04DX003 (ip), vehicle: saline) was 0 of 4.

In the case of `O=C(CCCC(=O)N/N=C/c1ccc2ccccc2n1)N/N=C\c1ccc2ccccc2n1`, the survivor count (dose: 200.0 mg/kg/injection, schedule: Q01DX001 (ip), vehicle: other) was 4 of 4.

`CCCCCCN(CCCCCC)CC(=O)Nc1ccc(S(=O)(=O)c2ccc(NC(=O)CN(CCCCCC)CCCCCC)cc2)cc1` was tested, and the survivor count [11] was 0 of 4 and 1 of 4, the survivor count [6] was 0 of 4 and the survivor count [7] was 0 of 4.

With `FC(F)(F)c1ccc2c(c1)N(CCCN(CCCl)CCCl)c1ccccc1S2` the survivor count (dose: 25.0 mg/kg/injection, schedule: Q01DX009 (ip), vehicle: saline with Tween-80) was 3 of 6, the survivor count [12] was 0 of 6 and the survivor count [13] was 1 of 6. For the same molecule, the survivor count (dose: 150.0 mg/kg/injection, schedule: Q04DX003 (ip), vehicle: alcohol) was 3 of 6, the survivor count (dose: 225.0 mg/kg/injection, schedule: Q04DX003 (ip), vehicle: alcohol) was 1 of 6 and the survivor count (dose: 335.0 mg/kg/injection, schedule: Q04DX003 (ip), vehicle: alcohol) was 2 of 6.

For `CCc1cccc(CC)c1NC(=S)NN`, the survivor count (dose: 200.0 mg/kg/injection, schedule: Q04DX002 (ip), vehicle: saline with Tween-80) was 0 of 3 and the survivor count (dose: 400.0 mg/kg/injection, schedule: Q04DX002 (ip), vehicle: saline with Tween-80) was 0 of 3.

`C=CCC1(CC)C(=O)NC(=O)NC1=O` was tested, and the survivor count [3] was 1 of 6.

In the case of `CC1=CC(=O)C2(C)C(C)=C(C)C12C` (stereo not drawn), the survivor count (dose: 200.0 mg/kg/injection, schedule: Q04DX003 (ip), vehicle: saline with Tween-80) was 6 of 6.

`CCc1ccccc1NC(=O)Sc1ccccc1O` was tested, and the survivor count [12] was 3 of 6, the survivor count [13] was 5 of 6 and 6 of 6 and the survivor count (dose: 200.0 mg/kg/injection, schedule: Q01DX009 (ip), vehicle: saline with Tween-80) was 4 of 6. For the same molecule, the survivor count [10] was 0 of 6.

In the case of `CCCCS(=O)c1nc2ccccc2s1` (stereo not drawn), the survivor count (dose: 400.0 mg/kg/injection, schedule: Q04DX002 (ip), vehicle: other) was 1 of 3.

`Cc1nc(N)sc1N=Nc1cc(Br)ccc1Br` was tested, and the survivor count [2] was 3 of 6.

With `CSc1nc(Cl)c(-c2ccccc2)c(N2CC2)n1` the survivor count [8] was 3 of 6 and the survivor count [9] was 0 of 6.

For `COc1cc(C=Nc2ccc(C(=O)O)cc2)ccc1N(CCCl)CCCl`, the T/C (dose: 6.0 mg/kg/injection, schedule: Q01DX015 (ip), vehicle: carboxymethylcellulose (CMC)) was 125 % of control, the survivor count (dose: 24.0 mg/kg/injection, schedule: Q01DX015 (ip), vehicle: carboxymethylcellulose (CMC)) was 5 of 6 and the T/C (dose: 25.0 mg/kg/injection, schedule: Q01DX001 (ip), vehicle: carboxymethylcellulose (CMC)) was 128 % of control. The survivor count (dose: 48.0 mg/kg/injection, schedule: Q01DX015 (ip), vehicle: carboxymethylcellulose (CMC)) was 2 of 6, the T/C [5] was 137 % of control [5 of 6 alive] and the survivor count [5] was 3 of 6. For the same molecule, the survivor count [11] was 2 of 6 and the survivor count [6] was 0 of 6.

With `C=C(C)C1(CCCCC)C(=O)NC(=O)NC1=O` the survivor count [2] was 1 of 6.

In the case of `CCCCN(CCCC)CCNc1ccc(C)c2sc3ccccc3c(=O)c12`, the survivor count (dose: 900.0 mg/kg/injection, schedule: Q01DX Z (ip), vehicle: carboxymethylcellulose (CMC)) was 4 of 6.

For `CSc1nc(F)nc2c1ncn2C1OC(CO)C(O)C1O` (stereo not drawn), the survivor count [4] was 0 of 6.

For `NC(N)=N/N=C\c1ccc(/C=N/N=C(N)N)cc1`, the survivor count (dose: 240.0 mg/kg/injection, schedule: Q01DX Z (ip), vehicle: carboxymethylcellulose (CMC)) was 6 of 6 and the survivor count (dose: 480.0 mg/kg/injection, schedule: Q01DX Z (ip), vehicle: carboxymethylcellulose (CMC)) was 0 of 6.

With `O=S(=O)(CCS(=O)(=O)c1ccccc1)c1ccccc1` the survivor count (dose: 300.0 mg/kg/injection, schedule: Q01DX009 (ip), vehicle: saline) was 6 of 6.

In the case of `CCN(CC)c1ccc(/C=C/C=O)cc1`, the survivor count (dose: 400.0 mg/kg/injection, schedule: Q04DX003 (ip), vehicle: gum acacia) was 1 of 6.

Source: PubChem BioAssay AID248 (DTP/NCI, 2004)
